Reference: article PMC5763582
These are yes or no findings as the source states them, for the method shown. In cells and extracts the contact can be indirect. Some entries that bind do so weakly or less than the wild type.

Experiments:
FLAG-RHEB WT = FLAG-RHEB WT (UniProt Q15382); test: co-IP; anti-FLAG M2 magnetic beads on lysates of HEK293T cells transfected with FLAG-RHEB forms; lysis buffer 50 mM HEPES pH 7.4, 150 mM NaCl, 0.4% CHAPS, 25 mM MgCl2; eluted with 3X FLAG peptide; Western blot for endogenous partners
FLAG-RHEB T38A = FLAG-RHEB T38A (UniProt Q15382); test: as above
FLAG-RHEB D60I = FLAG-RHEB D60I (UniProt Q15382); test: as above
FLAG-RHEB Y35N = FLAG-RHEB Y35N (UniProt Q15382); test: as above
[1] = molecular target: BRAF (NIH 3T3) (mouse (endogenous in NIH 3T3)) (UniProt P28028); test: co-IP; endogenous BRAF immunoprecipitated from lysates of NIH 3T3 lines stably expressing FLAG-RHEB WT or FLAG-RHEB Y35N; Western blots for CRAF, BRAF and FLAG

Row | binding (FLAG-RHEB WT) | binding (FLAG-RHEB T38A) | binding (FLAG-RHEB D60I) | binding (FLAG-RHEB Y35N) | binding [1] | Substance
1 | binds | binds | binds | binds | – | BRAF (from UniProt P15056 1-766)
2 | no binding | – | – | – | – | CRAF (from UniProt P04049 1-648)
3 | – | – | – | – | binds | FLAG-RHEB WT (stably expressed in NIH 3T3) (from UniProt Q15382 1-184)
4 | – | – | – | – | binds | FLAG-RHEB Y35N (stably expressed in NIH 3T3) (from UniProt Q15382 1-184)
